Measurements reported in PubChem BioAssay AID504791 (Drosophila RNAi Screening Center, 2011)

Screen: 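Genes whose knock-down strengthens or weakens small-RNA reporter silencing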 (primary screen)
Cells: Drosophila S2-derived reporter cells
Reagents: long dsRNA against Drosophila genes, about 150-250 ng dsRNA per well (siRNA assay); about 80-120 ng (miRNA assay)
Duration: about 5 days (siRNA assay); about 4 days (miRNA assay)
Treatment: copper sulfate induction of reporters: 25 µM (siRNA assay); 200 mM stated (miRNA assay), 1-2 days before reading
Read-out: 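Dual luciferase assay: Renilla to firefly signal ratio in each well, scaled to the mean ratio of its plate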
Hit rule: 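a well was a first-pass pick when its plate-scaled ratio rose above 1.5 (siRNA assay) or 1.6 (miRNA assay), or dropped below 0.6; a gene counted only if two separate dsRNAs agreed on retest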
The screen tested about 23,000 reagents; below is a random part of those that have a named target and a result. In the full data, 199 (0.86%) were called active. 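Plate-scaled ratios behind the calls are not deposited; printed light signals are raw; many rows marked increased or decreased are still called inactive.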 No sequences are given here. The record does not give: the direction of the score.

Gene | DRSC id | stable siRNA reporter change | miRNA reporter change | stable assay Renilla, run 1 (luminescence) | stable assay firefly, run 1 (luminescence) | outcome
Mnt | DRSC17894 | – | – | 6895 | 3.61e5 | inactive
Mnt | DRSC18480 | – | – | 6134 | 3.41e5 | inactive
rux | DRSC18829 | – | – | 8336 | 3.69e5 | inactive
CG8945 | DRSC20129 | – | – | 3316 | 2.21e5 | inactive
CG8945 | DRSC20130 | – | – | 3827 | 2.56e5 | inactive
CG34290 | DRSC13660 | – | – | 5607 | 3.86e5 | inactive
CG5397 | DRSC00683 | – | – | 35661 | 1.60e5 | inactive
hebe | DRSC05192 | – | – | 4648 | 4.54e5 | inactive
hebe | DRSC06605 | – | – | 5643 | 4.25e5 | inactive
hebe | DRSC21614 | – | – | 8871 | 5.14e5 | inactive
Acbp4 | DRSC11023 | – | – | 7018 | 4.60e5 | inactive
Cdep | DRSC12028 | – | – | 5634 | 4.71e5 | inactive
Cdep | DRSC12220 | – | – | 7720 | 4.57e5 | inactive
Cdep | DRSC12291 | – | – | 8067 | 4.04e5 | inactive
ph-p | DRSC18820 | – | – | 6054 | 4.73e5 | inactive
CG31174 | DRSC13518 | – | – | 5223 | 4.51e5 | inactive
CG13995 | DRSC00907 | – | – | 2863 | 3.37e5 | inactive
CG13995 | DRSC02327 | – | – | 6443 | 3.68e5 | inactive
CG13995 | DRSC22767 | – | – | 3244 | 3.21e5 | inactive
pippin | DRSC04489 | – | – | 27997 | 1.20e6 | inactive
CG5746 | DRSC15868 | – | – | 7638 | 3.75e5 | inactive
CG32855 | DRSC13131 | – | – | 5790 | 5.30e5 | inactive
iPLA2-VIA | DRSC10699 | – | – | 8099 | 4.34e5 | inactive
BaraB | DRSC06420 | – | – | 6247 | 3.91e5 | inactive
CG4577 | DRSC00658 | – | – | 8878 | 4.96e5 | inactive
st | DRSC11399 | – | – | 10767 | 4.88e5 | inactive
CG7560 | DRSC10879 | – | – | 7063 | 4.49e5 | inactive
mmm | DRSC10208 | – | – | 6247 | 3.63e5 | inactive
Syt4 | DRSC12606 | – | – | 7207 | 3.32e5 | inactive
synr | DRSC02369 | – | – | 8707 | 6.28e5 | inactive
cib | DRSC18660 | – | – | 4032 | 3.08e5 | inactive
dpr13 | DRSC06160 | – | – | 5224 | 4.12e5 | inactive
dpr13 | DRSC06464 | – | – | 5835 | 3.93e5 | inactive
Alp11 | DRSC20080 | – | – | 6600 | 5.03e5 | inactive
trpl | DRSC06728 | – | – | 6943 | 4.85e5 | inactive
trpl | DRSC06729 | reporter ratio lowered past the hit cutoff | – | 2811 | 4.49e5 | inactive
Lsp1beta | DRSC00757 | – | – | 33406 | 2.17e5 | inactive
nyo | DRSC15029 | reporter ratio lowered past the hit cutoff | – | 5622 | 6.41e5 | inactive
nyo | DRSC15030 | – | – | 6707 | 5.51e5 | inactive
CG32603 | DRSC19409 | – | – | 5536 | 4.71e5 | inactive
CG32603 | DRSC21586 | – | – | 8441 | 5.04e5 | inactive
CYLD | DRSC02870 | – | – | 7775 | 3.40e5 | inactive
CG46385 | DRSC06425 | – | – | 6810 | 2.57e5 | inactive
CG46385 | DRSC06557 | – | – | 7262 | 4.39e5 | inactive
CG2962 | DRSC18247 | – | – | 7258 | 4.70e5 | inactive
Lcp65Aa | DRSC11209 | – | – | 7825 | 4.79e5 | inactive
resilin | DRSC05627 | – | – | 7091 | 4.19e5 | inactive
resilin | DRSC06595 | – | – | 6462 | 3.68e5 | inactive
CG17027 | DRSC10238 | – | – | 10022 | 3.35e5 | inactive
Ets65A | DRSC09968 | – | – | 6171 | 4.02e5 | inactive
Ets65A | DRSC10738 | – | – | 7686 | 4.49e5 | inactive
Ets65A | DRSC11164 | – | – | 7759 | 6.44e5 | inactive
GAPsec | DRSC10564 | – | – | 7638 | 4.97e5 | inactive
caz | DRSC20317 | – | – | 2748 | 2.93e5 | inactive
caz | DRSC22594 | – | – | 2603 | 3.25e5 | inactive
caz | DRSC23280 | – | reporter ratio lowered past the hit cutoff | 2608 | 2.55e5 | active
caz | DRSC29957 | – | reporter ratio lowered past the hit cutoff | – | – | active

Active calls, among the entries above:
Gene | DRSC id | stable siRNA reporter change | miRNA reporter change | stable assay Renilla, run 1 (luminescence) | stable assay firefly, run 1 (luminescence) | outcome
caz | DRSC23280 | – | reporter ratio lowered past the hit cutoff | 2608 | 2.55e5 | active
caz | DRSC29957 | – | reporter ratio lowered past the hit cutoff | – | – | active
